The nature of this test: inhibitors of GR-EGFP nuclear translocation, primary screen, dynein cargo transport inhibitor project, imaging, high-content, 3617.4 mouse cells (AID 1381). The conditions noted are these: stimulated with dexamethasone, 1 µM.
The mark [1] stands for this setting: measured here: cell count per field, at 20 µM.
Setting [2] is: measured here: cytoplasmic GR-EGFP intensity, at 20 µM, stronger effect = higher value.
Setting [3] is: measured here: nuclear GR-EGFP intensity, at 20 µM, stronger effect = lower value.
Where [4] appears, read: measured here: cell count per field, at 50 µM.
Where [5] appears, read: measured here: cytoplasmic GR-EGFP intensity, at 50 µM, stronger effect = higher value.
Where [6] appears, read: measured here: nuclear GR-EGFP intensity, at 50 µM, stronger effect = lower value.

The other results are listed elsewhere or left out.

Take `Cc1ccc(OCC(C)C)c(CN(CCCl)CCCl)c1`: the z-score under setting [1] is 1.03, the z-score under setting [2] worked out at 0.0671 and the z-score under setting [3] was -1.39.

As to `CCOc1ccc(C)cc1CN(CCCl)CCCl`, the z-score runs as follows: under setting [1], 0.748; under setting [2], -0.208; under setting [3], -0.707.

For `COc1ccc(NC2CCN(CCc3ccccc3)CC2)c(OC)c1`, the z-score by setting is: under setting [1], 0.39; under setting [2], -0.216; under setting [3], -0.436.

With `O=C(NCC1(N2CCOCC2)CCCCC1)c1cc2ccccc2o1`, the z-score is 1.02 under setting [4], 0.28 under setting [5] and -0.269 under setting [6].

With `N#CC1(Nc2ccccc2)CCN(Cc2ccccc2)CC1`, the z-score was -1.23 under setting [1], -0.241 under setting [2] and 0.587 under setting [3].

As to `O=C(OC1CN2CCC1CC2)C1c2ccccc2Oc2ccccc21` (configuration not stated), the z-score by setting is: under setting [1], -0.338; under setting [2], -0.357; under setting [3], 0.637.

With `CCOC(=O)N1CCC(Nc2ccc(OC)cc2)CC1`, the z-score runs as follows: under setting [1], -0.0291; under setting [2], -0.335; under setting [3], -0.231.

`COc1ccc(C(=O)NCC2(N3CCCCC3)CCCCC2)c(OC)c1OC`: the z-score is, setting by setting: under setting [1], -0.828; under setting [2], -0.222; under setting [3], 0.701.

In the case of `CN1CCC(Nc2cccc(F)c2)CC1`, the z-score is, setting by setting: under setting [1], -1.64; under setting [2], -0.181; under setting [3], 1.12.

Turning to `CC(C)c1ccc(NC2CCN(C(=O)OC(C)(C)C)CC2)cc1`, the z-score under setting [1] is -0.0592, the z-score under setting [2] was -0.215 and the z-score under setting [3] is -0.773.

For `COc1ccc(CN(CCCl)CCCl)cc1Cl`, the z-score is, setting by setting: under setting [1], 0.812; under setting [2], -0.221; under setting [3], -0.666.

Turning to `CN(C)c1cccc(C(=O)NCC2(N3CCCCC3)CCCCC2)c1`, the z-score by setting is: under setting [1], -0.465; under setting [2], -0.256; under setting [3], -0.0226.

Take `O=C(NCC1(N2CCOCC2)CCCCC1)c1cc(=O)[nH]c2ccccc12`: the z-score runs as follows: under setting [4], -0.0606; under setting [5], -0.0823; under setting [6], 0.218.

As to `COc1ccc(NC2CCN(C(=O)OC(C)(C)C)CC2)cc1`, the z-score reads like this: under setting [1], -1.6; under setting [2], -0.116; under setting [3], 1.32.

Turning to `CN1CCN(CCOC(=O)C(O)(c2ccccc2)c2ccccc2)CC1`, the z-score runs as follows: under setting [1], 0.125; under setting [2], -0.224; under setting [3], 0.294.

As to `N#CC1(Nc2ccccc2)CCN(CCc2ccccc2)CC1`, the z-score by setting is: under setting [1], 0.0761; under setting [2], -0.388; under setting [3], -0.0909.

`O=C(NCC1(N2CCCCC2)CCCCC1)c1cccc([N+](=O)[O-])c1`: the z-score was -1.94 under setting [1], -0.294 under setting [2] and 1.2 under setting [3].

Take `c1ccc(CN2CCC(Nc3ccccc3)CC2)cc1`: the z-score was -0.0701 under setting [4], -0.172 under setting [5] and -0.279 under setting [6].

Consider `N#Cc1ccc(C(=O)NCC2(N3CCCCC3)CCCCC2)cc1`, for which the z-score runs as follows: under setting [1], -0.84; under setting [2], -0.159; under setting [3], -0.0579.

On to `N/C(=N\O)c1c(N)no[n+]1[O-]`, for which the z-score is, setting by setting: under setting [1], 0.0176; under setting [2], -0.165; under setting [3], 0.0477.

In the case of `O=C(OC1CN2CCC1CC2)C1c2ccccc2C=Cc2ccccc21` (configuration not stated), the z-score is -1.49 under setting [1], -0.11 under setting [2] and 0.332 under setting [3].

Turning to `COc1ccc(C(=O)NCC2(N3CCOCC3)CCCCC2)cc1OC`, the z-score under setting [1] is 1.53, the z-score under setting [2] is -0.273 and the z-score under setting [3] was -0.658.

Turning to `COc1cc(OC)cc(C(=O)NCC2(N3CCOCC3)CCCCC2)c1`, the z-score by setting is: under setting [1], 1.87; under setting [2], 1.54; under setting [3], -0.0914.

As for `CCC(CO)(C(=O)OC1CN2CCC1CC2)c1ccccc1` (configuration not stated), the z-score under setting [1] was -1.4, the z-score under setting [2] is -0.169 and the z-score under setting [3] was determined as 0.526.

In the case of `CCCOc1ccc(C)cc1CN(CCCl)CCCl`, the z-score is 0.156 under setting [1], -0.0197 under setting [2] and -0.975 under setting [3].

In the case of `CCOc1ncccc1C(=O)NCC1(N2CCOCC2)CCCCC1`, the z-score reads like this: under setting [1], -0.896; under setting [2], -0.00382; under setting [3], 0.416.

In the case of `CC(C)(C)OC(=O)N1CCC(Nc2ccccc2)CC1`, the z-score is 0.914 under setting [1], -0.322 under setting [2] and -0.133 under setting [3].

As for `CCN1CCC(Nc2cccc(F)c2)CC1`, the z-score was -0.301 under setting [1], -0.229 under setting [2] and 1.15 under setting [3].

`CN(C)c1ccc(C(=O)NCC2(N3CCCCC3)CCCCC2)cc1`: the z-score was 0.944 under setting [1], -0.378 under setting [2] and -0.413 under setting [3].

(Values after PubChem BioAssay AID1381 (University of Pittsburgh Molecular Library Screening Center, 2008).)
